Results from the supplement of paper PMC3334620.
Over roughly 33,000 sequences, “E-score (-0.5 to 0.5)” has its median near -0.0034; the highest 2% begin near 0.25. Some of the results follow.

target: T1, Yap3 (UniProt P38749); test: PBM E-score (8-mer binding enrichment) (E-score (-0.5 to 0.5)); higher = stronger / more preferred TF binding; conditions: protein concentration: 100 nM; construct: GST-full length
T1 sequence: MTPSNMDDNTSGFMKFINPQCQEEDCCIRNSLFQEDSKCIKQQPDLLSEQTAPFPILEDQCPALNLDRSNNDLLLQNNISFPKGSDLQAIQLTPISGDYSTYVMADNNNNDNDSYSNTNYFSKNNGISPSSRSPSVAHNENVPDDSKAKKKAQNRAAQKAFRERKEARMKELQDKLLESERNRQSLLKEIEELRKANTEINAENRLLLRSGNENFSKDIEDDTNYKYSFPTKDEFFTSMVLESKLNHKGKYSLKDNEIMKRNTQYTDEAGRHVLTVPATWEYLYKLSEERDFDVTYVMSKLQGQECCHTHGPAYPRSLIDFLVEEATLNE
How it was run: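 Masliner-normalised scans of fluorescent anti-GST signal were the basis for scoring. That signal came from GST-tagged yeast transcription factors applied at about 100-200 nM to double-stranded universal all-10-mer Agilent arrays on fresh or once-stripped slides. Each ungapped eight-base word, pooled with its reverse complement, received an E-score from the Universal PBM Analysis Suite.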

Row | Sequence | PBM E-score
1 | TTAATCAA | 0.148
2 | AACTTACG | 0.237
3 | CAGGAAAC | 0.137
4 | GCTATTAC | 0.137
5 | TAGCACTA | 0.0422
6 | ACAGTCTA | -0.0453
7 | CCACTTGA | 0.119
8 | GGGAATAC | 0.0659
9 | GGATGCCA | -0.204
10 | GGTCAGTA | -0.139
11 | GGTGATAA | 0.0163
12 | AGGTAAAT | 0.117
13 | CGGGGCTC | -0.21
14 | ACCAACCT | 0.0359
15 | CTAAACAA | 0.127
16 | ATCCCCCG | -0.0717
17 | CGTTAATC | 0.152
18 | CGAGGGGA | -0.25
19 | ACCATCAA | 0.133
20 | CCGTCAGC | -0.167
21 | GCCAGATA | -0.0308
22 | CTAATATC | 0.163
23 | CTCACTAA | -0.0789
24 | AGCATACG | -0.0333
25 | ATCCCACG | -0.0635

Row | Sequence | PBM E-score
26 | CTTAGGTC | -0.0924
27 | AACTGCCA | -0.0467
28 | AGCGCATA | 0.112
29 | CCTTCGGA | -0.212
30 | CGCTCAGA | -0.133
31 | ACGTCATA | 0.156
32 | CCTATAGC | -0.0262
33 | TAAAGCTA | -0.0896
34 | AGTGCCCA | 0.0636
35 | CGCCGCTA | -0.109
36 | AGTCCTTG | -0.16
37 | GGACGGAC | -0.166
38 | GATGGCAA | 0.128
39 | AATACCGG | 0.133
40 | CGCAAGAA | 0.191
41 | CCGAGACG | -0.0916
42 | AACTGCCG | 0.00013
43 | GCAAGAAA | 0.161
44 | ATCGTATC | 0.106
45 | CATGGGAC | -0.0258
46 | CGACTTTC | -0.0265
47 | GCACAGTA | 0.0785
48 | GCAGGGCC | -0.275
49 | AACGGTCA | 0.0629
50 | AACCACAG | -0.0877

Row | Sequence | PBM E-score
51 | ACCATGCC | -0.0126
52 | GTCGAGGA | -0.119
53 | AAGGCGTC | -0.0529
54 | TAGATACA | 0.0774
55 | ACGAAATA | 0.0697
56 | GCCGTACC | -0.163
57 | CAGGCCGG | -0.333
58 | CTACTGCA | -0.207
59 | ATCACTGA | -0.192
60 | ATCGTCAG | -0.0651
61 | GAAATATA | 0.248
62 | CAAGAGAG | -0.0663
63 | CGCCTGTC | -0.211
64 | CAGTCAGG | -0.0935
65 | ACGCCAAT | 0.133
66 | CCTCGCAG | -0.106
67 | AATAGACG | 0.153
68 | ATTGTGAG | 0.0597
69 | CCGTGGAG | -0.138
70 | CCTGCCCA | -0.132
71 | CAGTCCGA | -0.0781
72 | CCCTCATC | -0.104
73 | CATGCGAA | -0.0126
74 | CTGTAAAG | -0.0693
75 | TTACAAAA | 0.256

Row | Sequence | PBM E-score
76 | ATAATCAC | 0.231
77 | AAGCCGAT | 0.158
78 | GGCCCAGA | -0.291
79 | CCGTGCTC | -0.161
80 | CCTCTGAA | -0.0144
81 | GGTATGAC | 0.0231
82 | ATATGTTC | 0.184
83 | CCTCGTCC | -0.24
84 | GGACTAAC | -0.134
85 | CAGTCGAG | -0.112
86 | ACATAAAT | 0.239
87 | AGGTCATA | 0.0126
88 | GCCCCACC | -0.0294
89 | AGTGGCCC | -0.105
90 | CAATCCGA | 0.138
91 | AGCCTAAC | -0.158
92 | GACCTGGA | -0.125
93 | AACCTCCT | -0.0549
94 | AAAGAATG | 0.115
95 | ACTACCCA | -0.0314
96 | CCTGCGGC | -0.361
97 | AAACCACC | 0.0609
98 | AGAAGATC | -0.0464
99 | CCCCGGGA | -0.261
100 | CCAGTGCA | -0.144

Row | Sequence | PBM E-score
101 | CCGAGCTC | 0.0167
102 | AGCAACAT | -0.00444
103 | CAGATCCC | -0.177
104 | CACAACCG | 0.0416
105 | ATAAGATC | 0.0129
106 | GGCAGCCA | -0.0896
107 | CCTTCTTA | 0.00916
108 | GCTCTAGA | -0.245
109 | ATGGACGA | 0.0949
110 | ATGTGGAC | -0.0215
111 | CTACTTGA | 0.0551
112 | ATGTCTCC | 0.0848
113 | ACCGGGAG | -0.262
114 | TAACACTA | 0.245
115 | ACCAAAAC | 0.104
116 | GAATATCA | 0.159
117 | CTGGACGC | -0.133
118 | CGTGAAGA | -0.0711
119 | GGACCGGA | -0.112
120 | AGGACCGG | -0.305
121 | ACGACAGA | 0.0226
122 | GACGAGCA | -0.0184
123 | ACTCCGCG | 0.0459
124 | GTGGAATA | 0.084
125 | CTCTGATC | -0.00192

Random excerpt: 7 records from the list
Row | Sequence | PBM E-score
28 | AGCGCATA | 0.112
29 | CCTTCGGA | -0.212
67 | AATAGACG | 0.153
63 | CGCCTGTC | -0.211
13 | CGGGGCTC | -0.21
18 | CGAGGGGA | -0.25
98 | AGAAGATC | -0.0464

Next part:

Row | Sequence | PBM E-score
126 | ATCCAAGA | 0.026
127 | CATGCTGG | -0.0666
128 | ACTTCGAC | -0.0567
129 | CGCCAAAA | 0.107
130 | TGAGATAA | 0.181
131 | GCGTAGAC | -0.231
132 | CTGTTACC | -0.0269
133 | TATTCCAA | 0.0984
134 | GTGGCGTA | -0.0591
135 | TCGACCAA | -0.0266
136 | CATTCTTA | 0.0235
137 | AGGAACTG | -0.237
138 | ACCGCCAA | -0.00074
139 | ACCGGCGC | 0.0314
140 | ATGTTGTG | 0.119
141 | AGAGTAAA | 0.0554
142 | GCGAGCTA | -0.00275
143 | ACAGTCAA | 0.0437
144 | CATTGTCG | -0.022
145 | AACACAAA | 0.202
146 | TCAAAGCA | 0.144
147 | ACGTTACT | 0.141
148 | ATGCGTCC | -0.221
149 | ATAGTAAC | 0.218
150 | GGACGCAA | -0.0406

Row | Sequence | PBM E-score
151 | TAACAGTA | 0.207
152 | CGTGCCCC | -0.235
153 | CGCTACGA | 0.0231
154 | CTGTGTGC | -0.201
155 | CACAGGAG | -0.0309
156 | CTCGAACC | -0.0728
157 | GAAACTAC | 0.127
158 | CCTCCAGC | -0.305
159 | ATATACAT | 0.168
160 | ATTGTTTA | 0.0804
161 | GAACACTA | 0.0354
162 | AGGTATTG | 0.114
163 | ACGACCTC | 0.0252
164 | CATTGTAG | 0.0549
165 | CTTGTTCC | 0.0876
166 | ATAGTTCG | 0.053
167 | CTGTGAAA | 0.264
168 | ACGCACGA | 0.131
169 | CAGGCTAG | -0.237
170 | CGTGTCAG | 0.159
171 | AAATTCCT | 0.00181
172 | GGACCGTA | -0.197
